## Primary screen of a compound library

Source: ChEMBL document CHEMBL3988442, “University of Dundee, Small-Polar-MMV Screening Library” (2021).

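Whole-parasite assay of Trypanosoma brucei over 72 hours; the read-out is not stated. Compounds at 30 µM. The record gives no direction; compounds that gave an IC50 in retests scored well above the rest, so higher reads as stronger inhibition. Values scatter widely below zero; nearly all retest evidence comes from the higher of the two concentrations used. Size under these conditions: about 64,000 compounds, about 940 of them at 50% or above in at least one test.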

Values are the deposited “Percent Effect”, in %. The record does not define 0% and 100%; most values in the screen are far below 50% and negative numbers occur (in some assays of this library far below -100). The compounds are a random part of those screened.

| Compound | percent effect |
|---|---|
| `Cn1cc(CN2CCc3ncn(C)c3C2COCc2ccccc2)cn1` (stereo not given) | 8.477 |
| `CCc1cc(NCC(O)CN2CCCCC2)n2ncnc2n1` (stereo not given) | 22.27 |
| `CN(Cc1c(F)cccc1Cl)C(=O)Cn1cnc(C#N)n1` | 11.04 |
| `Cc1nnc(NC(=O)NCc2cccnc2N(C)C)s1` | 26.07 |
| `CCOc1ccc(Cl)c(C(=O)N2CCCC(c3cc(C)[nH]n3)C2)n1` (stereo not given) | 5.949 |
| `O=C1NCCCc2[nH]c(-c3nc(C4CCCCC4)no3)nc21` | 2.303 |
| `CC(C)c1nc(C2CCCN(C(=O)CN3CCCNC3=O)C2)no1` (stereo not given) | -37.63 |
| `COCc1cc(NCc2cc(F)ccc2F)n2nccc2n1` | -36.1 |
| `CN1CC2(CCN(C(=O)c3ccc(-n4cnnc4)cc3Cl)CC2)OC1=O` | -22.18 |
| `COCCN1CCN(Cc2cccc(OCC(N)=O)c2)CC1C` (stereo not given) | -5.497 |
| `O=C(CN1CC(c2nc(Cc3ccccc3)no2)C1)NCC1CCCO1.O=C(O)C(=O)O` (stereo not given) | 6.981 |
| `Cc1ccccc1C1(C(=O)NCCN2CCC(C)CC2)CCOCC1` | 1.423 |
| `COCCc1noc(C2CCCN(c3nc(N)nc4c3CCCC4)C2)n1` (stereo not given) | -31.29 |
| `COc1ccc(CN2CC(=O)N(c3ccc(C)cc3)CC2C)cc1O` (stereo not given) | -20.88 |
| `Cc1cccc(CC2CCCN(C(=O)C3CCOCC3)C2)n1` (stereo not given) | 13.38 |
| `CCCS(=O)(=O)N1CCC2(CC1)CN(C(=O)N(C)C)c1ccccc12` | -155.2 |
| `COCCOc1ncccc1NCc1nc2ccccc2n1C` | -51.97 |
| `CC(C)(C)CNC[C@H]1Cn2ccnc2CO1` | -7.457 |
| `CO[C@H]1CCN(S(=O)(=O)c2cn(C)cn2)[C@H]1Cc1ccccc1.O=C(O)C(F)(F)F` | 16.09 |
| `CC1=C[C@@H](CC#N)[C@H](C(C)C)C[C@H]1CC(=O)N1CCN(CCO)CC1` | -13.73 |
| `Cn1nc(Cn2cccn2)c2c1CN(Cc1ccoc1)C2.O=C(O)C(F)(F)F` | -51.22 |
| `OC1CCN(CCCNc2nccc(C3CCCC3)n2)CC1` | -8.984 |
| `Cc1cc(C)nc(N2Cc3cnn(Cc4ccc(F)cc4)c3C2)n1` | 3.465 |
| `CCN(CC)Cc1nnc2sc(-c3cc(C(C)C)[nH]n3)nn12` | -17.28 |
| `COc1cccc2c1ccn2CCNC(=O)CC(C)C` | -27.5 |
| `COc1cc(C(=O)NS(=O)(=O)c2ccc(C#N)cc2)ccc1C` | -11.52 |
| `CC(C)c1ncc(Cl)c(C(=O)N2CCN(C3CC3)CC2)n1` | 2.449 |
| `Cc1nc(N2CCOCC2)nc2c1COCC21CCN(CC(C)C)C1` (stereo not given) | -109.1 |
| `Cc1nc(-c2ncc(C(=O)NCCNc3ncccc3C)c(O)n2)cs1` | -1.041 |
| `CC1c2ncc(Cn3cccn3)n2CCN1S(=O)(=O)C1CC1` (stereo not given) | 10.89 |
| `CSCCC(=O)N1CCc2c(ncnc2N2CCOCC2)C1` | 8.976 |
| `CS(=O)(=O)CCOCCNc1ccc2ccc(F)cc2n1` | 14.7 |
| `CCOc1ccc(C#N)cc1NC(=O)N1CCOC(C(N)=O)C1` (stereo not given) | -8.949 |
| `COC[C@]1(O)CCN(C(=O)c2ccc(CN(C)C)o2)CC1(C)C` | -28.89 |
| `O=C(CN1CCN(C(=O)c2sccc2C2CC2)CC1)NC1CC1` | -23.69 |
| `NS(=O)(=O)N1CCC(CSc2ccccc2)C1` (stereo not given) | -41.93 |
| `CC(C)OCCn1nnnc1Cc1ccc(Br)cc1` | -48.22 |
| `Cc1ccccc1CC(=O)N(C)CC1(O)CCCN(c2ccccn2)C1` (stereo not given) | 17.17 |
| `COc1cc2nc3n(c(=O)c2cc1OC)CCN(C(=O)C1CC1)CC3` | 7.953 |
| `CC(C)CN1C[C@@H](C(=O)O)C[C@@H](C(=O)NCc2ccncc2)C1` | -15.1 |
| `CN1CCN(CC[C@@H]2CC[C@H](O)[C@@H](C(=O)Nc3ccccc3)O2)CC1` | 1.137 |
| `COC(=O)CNC(=O)c1sccc1N(C)S(=O)(=O)c1ccc(Cl)cc1` | -15.49 |
| `CCC(OC)C(=O)N1CCC2(CC1)c1nc[nH]c1CCN2S(C)(=O)=O` (stereo not given) | -47.72 |
| `O=C(O)C(F)(F)F.[H][C@@]12CCN(S(=O)(=O)c3cccnc3)[C@]1([H])CC[C@@H](c1nc(C)no1)O2` | -26.97 |
| `O=C1CC(NCc2ccccn2)CN1CCc1ccc(F)cc1` (stereo not given) | 2.338 |
| `CCC(CC)(CCO)CNC(=O)c1ccon1` | 2.765 |
| `Cc1cccnc1[C@H](C)Nc1nc(-c2cccnc2)nc2c1CNC2` | -14.29 |
| `CN[C@@H]1CCC[C@@H](Oc2ccccc2Oc2ccc(C)cc2)[C@@H]1O` | 101 |
| `CS(=O)(=O)c1cc(Cl)cnc1C1CCCN(C(=O)C2CCOCC2)C1` (stereo not given) | -5.918 |
| `Cc1ccc(-n2nnc(C(=O)NCC(F)(F)F)c2C2CC2)cc1` | -14.17 |
| `CCc1cnc(CN(C)C2CCN(c3sccc3C#N)C2=O)s1` (stereo not given) | -0.6821 |
| `CC(C)CN1CCC2(CCN(Cc3ccsc3)CC2)C1=O` | 2.917 |
| `COc1c(Cl)cc(Cl)cc1CN1CCC(C(N)=O)C1` (stereo not given) | -17.04 |
| `Cc1cnccc1N1CCN(C(=O)CCCN2CCCCC2)CC1` | -25.87 |
| `CC1=C(C#N)C(=O)NC(=O)/C1=C\c1c(C)nn(-c2ccc(Cl)cc2)c1O` | 33.27 |
| `CCNC(=O)CCCC(=O)N1CCc2cc(Cl)cc(Cl)c2C1` | -14.82 |
| `NCC1CCN(c2nc(C3CCCC3)nc3c2CCNCC3)C1` (stereo not given) | -37.62 |
| `O=C(CCn1ccc2ccc(F)cc21)/N=c1\[nH]nc(C2CCCO2)s1` (stereo not given) | -12.9 |
| `Cc1cc(F)c(S(=O)(=O)Nc2ccn(CCCC#N)n2)cc1F` | -6.352 |
| `CCN(Cc1ccncc1)C(=O)CCn1c(C)cc2ccccc21` | 5.596 |
| `CCOc1ncccc1C(=O)N1CC=C(c2ccc(O)cc2)CC1` | -27.88 |
| `COc1cc(CNC(=O)NCc2c(C)cc(C)[nH]c2=O)ccc1C` | 17.33 |
| `Cc1nnc2n1CCN(Cc1ncc(-c3ccc(F)cc3)o1)C2` | 0.4216 |
| `COc1c(CNCCNC(=O)c2ccc(C)cc2)c(C(C)C)nn1C` | 6.457 |
| `Cc1nc(C)n(CC2CCCN(Cc3cccnc3)C2)n1` (stereo not given) | -2.541 |
| `c1cc(CNCC2Cn3nncc3CO2)cs1` (stereo not given) | -19.07 |
| `O=c1cc(Cn2ccnc2)nc2n1CCCN(Cc1ccco1)C2` | -27.21 |
| `Cc1nc(NC2CCCC2)cc(C2CCN2c2ncccn2)n1` (stereo not given) | -14.2 |
| `CN1CC(C(=O)NCCOc2ccc3c(c2)OCO3)CC1=O` (stereo not given) | -6.002 |
| `COc1cccc(COCC(=O)N2CCCC(c3ccn[nH]3)C2)c1` (stereo not given) | -29.89 |
| `CCC[C@@H]1CN(C(=O)c2cc3ccccc3cc2O)C[C@H]1N(C)C` | -48.14 |
| `O=C(C1CCC2(CCN(CC3CCOCC3)CC2)O1)N1CCCC1.O=C(O)C(F)(F)F` (stereo not given) | -13.95 |
| `CCc1ncc2c(n1)CN(Cc1nnc(CC)o1)CC2` | -29.04 |
| `CCOc1ccc(NC(=O)NC2CCc3nc(C)nn3C2)cc1Cl` (stereo not given) | -139.5 |
| `O=C(Nc1ccccn1)N(CCO)Cc1ccsc1` | -25.76 |
| `CN1CC2(CCN(S(=O)(=O)C3CC3)CC2)c2ccccc21.O=C(O)C(F)(F)F` | -50.48 |
| `[H][C@@]12CCN(C(C)=O)C[C@]1([H])OCCN(c1ccsc1)C2=O` | -35.08 |
| `CC(C)[C@]1(O)CN(C(=O)C2(Cn3cccn3)CC2)C[C@H]1C` | -4.385 |
| `N#Cc1c(Cl)nsc1N1CCN(CC2CC2)CC1` | -23.59 |
| `CCCN1CCC2(Cc3ccccc3NC2=O)C1` (stereo not given) | 0.7995 |
| `CC(NC(=O)CSCC(N)=O)c1ccccc1Oc1ccccc1` (stereo not given) | 5.896 |
| `COC(C)c1cccc(NCc2ccsc2)c1` (stereo not given) | -5.571 |
| `Cc1cccn2cc(CC(=O)N(CCN(C)C)CC3CCCO3)nc12` (stereo not given) | -55.59 |
| `Cc1nc[nH]c1CN1CCn2nc(CN3Cc4ccccc4C3)cc2C1` | -2.792 |
| `Cc1nc(CN2CCOC3(CCCC3)C2)no1` | -21.68 |
| `Cc1cnn(CCNCC(=O)Nc2ccc(Cl)cn2)c1` | 2.753 |
| `CN(C)CCOCc1nnc2n1CCN(Cc1ccoc1)CC2.O=C(O)C(F)(F)F.O=C(O)C(F)(F)F` | -12.43 |
| `COc1cccc(S(=O)(=O)CCNCCn2cccn2)c1` | 2.283 |
| `O=C(c1cc(F)cc2[nH]cnc12)N1CCCCC1Cn1cccn1` (stereo not given) | 4.988 |
| `Cc1ccc(-c2ncc(C(=O)N3CCC[C@H](N)C3)c(O)n2)cc1` | -36.06 |
| `c1cn(Cc2nnc(C3CCN(C4CCOCC4)CC3)n2C2CC2)cn1` | -10.24 |

Once more, the final 10:

- COC(C)c1cccc(NCc2ccsc2)c1 (stereo not given) | -5.571%
- Cc1cccn2cc(CC(=O)N(CCN(C)C)CC3CCCO3)nc12 (stereo not given) | -55.59%
- Cc1nc[nH]c1CN1CCn2nc(CN3Cc4ccccc4C3)cc2C1 | -2.792%
- Cc1nc(CN2CCOC3(CCCC3)C2)no1 | -21.68%
- Cc1cnn(CCNCC(=O)Nc2ccc(Cl)cn2)c1 | 2.753%
- CN(C)CCOCc1nnc2n1CCN(Cc1ccoc1)CC2.O=C(O)C(F)(F)F.O=C(O)C(F)(F)F | -12.43%
- COc1cccc(S(=O)(=O)CCNCCn2cccn2)c1 | 2.283%
- O=C(c1cc(F)cc2[nH]cnc12)N1CCCCC1Cn1cccn1 (stereo not given) | 4.988%
- Cc1ccc(-c2ncc(C(=O)N3CCC[C@H](N)C3)c(O)n2)cc1 | -36.06%
- c1cn(Cc2nnc(C3CCN(C4CCOCC4)CC3)n2C2CC2)cn1 | -10.24%